This passage reports IC50 results from ChEMBL document CHEMBL4043130, “Discovery of a tetrahydroisoquinoline-based HDAC inhibitor with improved plasma stability” (Bioorg Med Chem, 2017).

The nature of the test: Inhibition of HDAC in human HeLa nuclear extract preincubated for 5 mins followed by Boc-Lys (acetyl)-AMC addition measured after 10 mins by fluorescence assay.

As a reminder, the IC50 is the concentration at which inhibition is half-maximal. The compound `O=C(CCCCCCC(=O)Nc1ccccc1)NO` [VORINOSTAT] gave a concentration for half-maximal inhibition (IC50) of 0.194 µM.
